No constants are given. Whether binding was seen depends on the method and setting. For some of these results: In cells and extracts the contact can be indirect. Some entries that bind do so weakly or less than the wild type. For some of these results: Tags and fused reporters may be left off the sequences shown.
T1: GFP-LAMP-1 (UniProt P11279)
T1 sequence: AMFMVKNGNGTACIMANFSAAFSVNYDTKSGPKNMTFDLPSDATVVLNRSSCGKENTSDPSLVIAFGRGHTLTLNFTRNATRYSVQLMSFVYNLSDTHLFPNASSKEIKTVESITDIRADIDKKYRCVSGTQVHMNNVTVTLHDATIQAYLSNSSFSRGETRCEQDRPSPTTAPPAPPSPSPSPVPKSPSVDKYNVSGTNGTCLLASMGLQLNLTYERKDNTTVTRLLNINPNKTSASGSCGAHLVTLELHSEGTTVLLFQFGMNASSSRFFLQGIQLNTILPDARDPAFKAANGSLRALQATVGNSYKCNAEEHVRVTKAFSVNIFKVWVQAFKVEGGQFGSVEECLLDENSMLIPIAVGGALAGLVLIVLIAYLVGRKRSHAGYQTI

By UniProt entry, the sequences of proteins in these tests, tags left out. Where a name states a change or a piece, a line headed by the entry shows the natural chain unless it says otherwise. Residues count along the entry.
UniProt Q86T03: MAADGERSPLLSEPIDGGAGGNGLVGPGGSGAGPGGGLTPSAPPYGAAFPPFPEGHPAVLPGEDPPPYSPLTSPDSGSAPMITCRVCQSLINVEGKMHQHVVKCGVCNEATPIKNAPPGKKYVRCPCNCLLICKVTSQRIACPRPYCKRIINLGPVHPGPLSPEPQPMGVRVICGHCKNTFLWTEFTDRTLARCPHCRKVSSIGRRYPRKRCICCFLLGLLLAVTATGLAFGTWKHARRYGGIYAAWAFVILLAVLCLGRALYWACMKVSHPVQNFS
GFP-TMEM55B CD (cytosolic domain): residues 1-207 of Q86T03
UniProt Q8N4L2: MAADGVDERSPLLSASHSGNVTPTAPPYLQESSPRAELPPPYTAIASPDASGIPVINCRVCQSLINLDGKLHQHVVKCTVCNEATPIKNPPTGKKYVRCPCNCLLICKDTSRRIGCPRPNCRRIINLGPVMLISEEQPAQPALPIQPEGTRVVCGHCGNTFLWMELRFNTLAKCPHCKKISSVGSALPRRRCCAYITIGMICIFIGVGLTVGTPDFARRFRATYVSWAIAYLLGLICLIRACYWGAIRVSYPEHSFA
GFP-TMEM55A CD: residues 1-181 of Q8N4L2


Key:
[1] = target: T1, GFP-LAMP-1; assay: pull-down; GFP pull-down on GFP-nanobody beads (Chromotek) from lysates of transfected ARPE-19 cells, immunoblot; 25 mM Tris-HCl pH 7.5, 300 mM NaCl, 5 mM EDTA, 1% Triton X-100, 2 h at 4 °C
[2] = target: GFP-TMEM55B (in U2OS cells) (human) (UniProt Q86T03); assay: SDS-PAGE and immunoblot of cell lysate; U2OS cells expressing GFP-TMEM55B, untreated or treated with 150 µM NaAsO2; SDS-PAGE under reducing conditions
[3] = target: GFP-TMEM55A FL (human) (UniProt Q8N4L2); assay: pull-down; GFP pull-down on GFP-nanobody beads (Chromotek) from lysates of transfected ARPE-19 cells, immunoblot; 25 mM Tris-HCl pH 7.5, 300 mM NaCl, 5 mM EDTA, 1% Triton X-100, 2 h at 4 °C
[4] = target: GFP-TMEM55B CD (cytosolic domain) (human) (UniProt Q86T03); assay: as above
[5] = target: GFP-TMEM55A CD (human) (UniProt Q8N4L2); assay: as above
[6] = target: GFP-TMEM55B FL (full length) (human) (UniProt Q86T03); assay: as above

binding [1] | binding [2] | binding [3] | binding [4] | binding [5] | binding [6] | Molecule
no binding | – | – | – | – | – | 3xHA-TMEM55B (from UniProt Q86T03 1-277)
– | binds | – | – | – | – | GFP-TMEM55B (in U2OS cells) (from UniProt Q86T03 1-277)
no binding | – | no binding | binds | no binding | binds | JIP4 (endogenous) (protein, UniProt O60271 1-1321) MELEDGVVYQEEPGGSGAVMSERVSGLAGSIYREFERLIGRYDEEVVKELMPLVVAVLENLDSVFAQDQEHQVELELLRDDNEQLITQYEREKALRKHAEEKFIEFEDSQEQEKKDLQTRVESLESQTRQLELKAKNYADQISRLEEREAELKKEYNALHQRHTEMIHNYMEHLERTKLHQLSGSDQLESTAHSRIRKERPISLGIFPLPAGDGLLTPDAQKGGETPGSEQWKFQELSQPRSHTSLKVSNSPEPQKAVEQEDELSDVSQGGSKATTPASTANSDVATIPTDTPLKEENEGFVKVTDAPNKSEISKHIEVQVAQETRNVSTGSAENEEKSEVQAIIESTPELDMDKDLSGYKGSSTPTKGIENKAFDRNTESLFEELSSAGSGLIGDVDEGADLLGMGREVENLILENTQLLETKNALNIVKNDLIAKVDELTCEKDVLQGELEAVKQAKLKLEEKNRELEEELRKARAEAEDARQKAKDDDDSDIPTAQRKRFTRVEMARVLMERNQYKERLMELQEAVRWTEMIRASRENPAMQEKKRSSIWQFFSRLFSSSSNTTKKPEPPVNLKYNAPTSHVTPSVKKRSSTLSQLPGDKSKAFDFLSEETEASLASRREQKREQYRQVKAHVQKEDGRVQAFGWSLPQKYKQVTNGQGENKMKNLPVPVYLRPLDEKDTSMKLWCAVGVNLSGGKTRDGGSVVGASVFYKDVAGLDTEGSKQRSASQSSLDKLDQELKEQQKELKNQEELSSLVWICTSTHSATKVLIIDAVQPGNILDSFTVCNSHVLCIASVPGARETDYPAGEDLSESGQVDKASLCGSMTSNSSAETDSLLGGITVVGCSAEGVTGAATSPSTNGASPVMDKPPEMEAENSEVDENVPTAEEATEATEGNAGSAEDTVDISQTGVYTEHVFTDPLGVQIPEDLSPVYQSSNDSDAYKDQISVLPNEQDLVREEAQKMSSLLPTMWLGAQNGCLYVHSSVAQWRKCLHSIKLKDSILSIVHVKGIVLVALADGTLAIFHRGVDGQWDLSNYHLLDLGRPHHSIRCMTVVHDKVWCGYRNKIYVVQPKAMKIEKSFDAHPRKESQVRQLAWVGDGVWVSIRLDSTLRLYHAHTYQHLQDVDIEPYVSKMLGTGKLGFSFVRITALMVSCNRLWVGTGNGVIISIPLTETNKTSGVPGNRPGSVIRVYGDENSDKVTPGTFIPYCSMAHAQLCFHGHRDAVKFFVAVPGQVISPQSSSSGTDLTGDKAGPSAQEPGSQTPLKSMLVISGGEGYIDFRMGDEGGESELLGEDLPLEPSVTKAERSHLIVWQVMYGNE
